Reference: PubChem BioAssay AID330 (DTP/NCI, 2004)
The list shows only some results of the screen, not a fair sample: it is rich in T/C values a quarter to a half above the control, in often repeated tests (any T/C) and in doses without a T/C. Further doses and runs are listed elsewhere. T/C is the treated group as % of the vehicle group. Some entries give survivors of the animals treated and no T/C: the source holds a T/C of zero for them, seemingly a mark for toxic or unscored doses. Some doses without a T/C left all or most animals alive at the check, yet need not have been tolerated: the source hardly ever lists a survival T/C far under the control, and the zero likely stands for such cases as well. Survivors were counted at the toxicity check, usually on the fifth day, unless a day is given; later deaths do not show. Schedules are NCI's codes, taken here to give the interval after Q, in days (D) or hours (H), and the number of doses after X. Where survival is the endpoint, this PubChem deposit counts one and a half times the control or more as active, and values a quarter to a half above the control carry no call in these data; other NCI protocols may use other cut-offs. Some entries were tested several times; their values stand side by side, smallest first. Some T/C values carry the count of animals alive at the toxicity check (mostly the fifth day); without a count, all were alive then.

Tested on: P388 leukemia ip, CD2F1 mice, survival T/C
Test: NCI In Vivo Anticancer Drug Screen. Data for tumor model P388 Leukemia (intraperitoneal) in CD2F1 (CDF1) mice
Settings: T/C endpoint: median survival time, higher T/C = longer survival
[1] = dose: 50.0 mg/kg/injection, schedule: Q01DX005 (ip), vehicle: saline with Tween-80
[2] = dose: 100.0 mg/kg/injection, schedule: Q01DX005 (ip), vehicle: saline with Tween-80
[3] = dose: 6.25 mg/kg/injection, schedule: Q01DX005 (ip), vehicle: Klucel (hydroxypropylcellulose) (HPC)
[4] = dose: 12.5 mg/kg/injection, schedule: Q01DX005 (ip), vehicle: Klucel (hydroxypropylcellulose) (HPC)
[5] = dose: 25.0 mg/kg/injection, schedule: Q01DX005 (ip), vehicle: Klucel (hydroxypropylcellulose) (HPC)
[6] = dose: 50.0 mg/kg/injection, schedule: Q01DX005 (ip), vehicle: Klucel (hydroxypropylcellulose) (HPC)
[7] = dose: 100.0 mg/kg/injection, schedule: Q01DX005 (ip), vehicle: Klucel (hydroxypropylcellulose) (HPC)
[8] = dose: 200.0 mg/kg/injection, schedule: Q01DX005 (ip), vehicle: Klucel (hydroxypropylcellulose) (HPC)
[9] = dose: 200.0 mg/kg/injection, schedule: Q04DX002 (ip), vehicle: saline with Tween-80
[10] = dose: 400.0 mg/kg/injection, schedule: Q04DX002 (ip), vehicle: saline with Tween-80
[11] = dose: 240.0 mg/kg/injection, schedule: Q01DX005 (ip), vehicle: saline with Tween-80
[12] = dose: 200.0 mg/kg/injection, schedule: Q04DX003 (ip), vehicle: Klucel (hydroxypropylcellulose) (HPC)
[13] = dose: 400.0 mg/kg/injection, schedule: Q04DX003 (ip), vehicle: Klucel (hydroxypropylcellulose) (HPC)
[14] = dose: 200.0 mg/kg/injection, schedule: Q01DX001 (ip), vehicle: Klucel (hydroxypropylcellulose) (HPC)
[15] = dose: 6.25 mg/kg/injection, schedule: Q04DX002 (ip), vehicle: saline with Tween-80

In the case of `O=C(O)CCCCc1ccc(CCCCC(=O)O)cc1`, the survivor count (dose: 75.0 mg/kg/injection, schedule: Q04DX003 (ip), vehicle: Klucel (hydroxypropylcellulose) (HPC)) is reported as 6 of 6, the survivor count (dose: 150.0 mg/kg/injection, schedule: Q04DX003 (ip), vehicle: Klucel (hydroxypropylcellulose) (HPC)) is reported as 6 of 6 and the survivor count (dose: 300.0 mg/kg/injection, schedule: Q04DX003 (ip), vehicle: Klucel (hydroxypropylcellulose) (HPC)) is reported as 6 of 6.
`CS(=O)(=O)CS(=O)(=O)OCCBr` was tested, and the T/C (dose: 25.0 mg/kg/injection, schedule: Q01DX005 (ip), vehicle: saline with Tween-80) was 136 % of control, the T/C [1] was 138 % of control and the survivor count [2] was 4 of 6. For the same compound, the survivor count (dose: 200.0 mg/kg/injection, schedule: Q01DX005 (ip), vehicle: saline with Tween-80) was 1 of 6.
In the case of `O=P(CCCCP(=O)(c1ccccc1)c1ccccc1)(c1ccccc1)c1ccccc1.[Cl][Sn]([Cl])([c]1ccccc1)[c]1ccccc1`, the T/C [3] is reported as 126 and 130 % of control, the T/C [4] is reported as 140 % of control and the survivor count [5] is reported as 0 of 6. For the same compound, the survivor count [6] was 1 of 6, the survivor count [7] was 0 of 6 and the survivor count [8] was 0 of 6.
For `CCCCCCCCCCCCC1=NCC[N+]1(CCO)CC(O)COc1cc(Cl)c(Cl)cc1Cl` (stereo unspecified), the survivor count (dose: 200.0 mg/kg/injection, schedule: Q01DX009 (ip), vehicle: saline) was 1 of 6.
`COc1ccc(NC(=O)C2C(=O)N(c3ccc(OC)cc3)C(=O)/C2=N/N=C(N)N)cc1` (stereo unspecified) was tested, and the survivor count [9] was 2 of 6 and the survivor count [10] was 2 of 6.
`COc1ccc2nc3cc(Cl)ccc3c(NCCCC3CCCN4CCCCC34)c2c1` (stereo unspecified) was tested, and the survivor count (dose: 60.0 mg/kg/injection, schedule: Q01DX005 (ip), vehicle: saline with Tween-80) was 3 of 6, the survivor count (dose: 120.0 mg/kg/injection, schedule: Q01DX005 (ip), vehicle: saline with Tween-80) was 3 of 6 and the survivor count [11] was 0 of 6.
In the case of `C[N+](C)(CCCCOc1c(Br)cc(Br)cc1Br)Cc1ccc([N+](=O)[O-])o1`, the survivor count (dose: 100.0 mg/kg/injection, schedule: Q04DX003 (ip), vehicle: Klucel (hydroxypropylcellulose) (HPC)) is reported as 0 of 6, the survivor count [12] is reported as 0 of 6 and the survivor count [13] is reported as 0 of 6.
`CCO/C=C/C=C1C(=O)N(C)C(=O)N(C)C1=O` was tested, and the survivor count (dose: 400.0 mg/kg/injection, schedule: Q01DX009 (ip), vehicle: saline + Tween-80 + alcohol) was 3 of 6.
`CCOC(=O)/C(C#N)=C/Nc1ccncc1` was tested, and the survivor count (dose: 200.0 mg/kg/injection, schedule: Q01DX009 (ip), vehicle: saline with Tween-80) was 3 of 6.
For `NC(=S)N/N=C/c1ccc(OC(F)(F)F)cn1`, the T/C (dose: 25.0 mg/kg/injection, schedule: Q01DX009 (ip), vehicle: saline with Tween-80) was 135 % of control [4 of 6 alive].
`CN1C2C=C(c3ccccc3)CC1CC2` (stereo unspecified) was tested, and the survivor count (dose: 6.0 mg/kg/injection, schedule: Q01DX005 (ip), vehicle: saline) was 0 of 6, the survivor count [3] was 0 of 6 and the survivor count (dose: 12.0 mg/kg/injection, schedule: Q01DX005 (ip), vehicle: saline) was 0 of 6. For the same compound, the survivor count [4] was 0 of 6, the survivor count [5] was 0 of 6 and the survivor count (dose: 25.0 mg/kg/injection, schedule: Q01DX005 (ip), vehicle: saline) was 0 of 6. For the same compound, the survivor count [6] was 0 of 6, the survivor count (dose: 50.0 mg/kg/injection, schedule: Q01DX005 (ip), vehicle: saline) was 0 of 6 and the survivor count [7] was 0 of 6. The survivor count (dose: 100.0 mg/kg/injection, schedule: Q01DX005 (ip), vehicle: saline) was 0 of 6, the survivor count [8] was 0 of 6 and the survivor count (dose: 200.0 mg/kg/injection, schedule: Q01DX005 (ip), vehicle: saline) was 0 of 6.
`N=c1c2[nH]cnc2ncn1O` was tested, and the survivor count (dose: 240.0 mg/kg/injection, schedule: Q01DX005 (ip), vehicle: Klucel (hydroxypropylcellulose) (HPC)) was 1 of 6.
For `CCC(c1ccc(OC)cc1)C(NCC(=O)NNC(=S)Nc1cccc(C)c1)c1ccc(OC)cc1` (stereo unspecified), the survivor count (dose: 400.0 mg/kg/injection, schedule: Q01DX001 (ip), vehicle: saline with Tween-80) was 1 of 6.
For `Cc1ccc(S(=O)(=O)N/N=C/c2c(Cl)n(C(=O)c3ccccc3F)c3ccccc23)cc1`, the survivor count (dose: 100.0 mg/kg/injection, schedule: Q01DX001 (ip), vehicle: Klucel (hydroxypropylcellulose) (HPC)) was 6 of 6 and the survivor count [14] was 6 of 6.
In the case of `O=C1OC(C2OC(=O)C(=O)C2C(=O)c2ccc([N+](=O)[O-])cc2)C(C(=O)c2ccc([N+](=O)[O-])cc2)C1=O` (stereo unspecified), the survivor count [11] is reported as 6 of 6.
`CCCCC(=O)NN` was tested, and the survivor count (dose: 100.0 mg/kg/injection, schedule: Q01DX009 (ip), vehicle: saline with Tween-80) was 6 of 6.
For `CCCCOC(=O)N(CCCl)N=O`, the survivor count (dose: 10.0 mg/kg/injection, schedule: Q01DX009 (ip), vehicle: saline with Tween-80) was 5 of 6 and the survivor count (dose: 20.0 mg/kg/injection, schedule: Q01DX009 (ip), vehicle: saline with Tween-80) was 4 of 6.
In the case of `N#CC1CCCC(CCc2ccccc2)(c2ccccc2)C1=N` (stereo unspecified), the T/C [14] is reported as 126 % of control.
`O=C(CCS(=O)(=O)CCC(=O)c1ccc2ccccc2c1)c1ccc2ccccc2c1` was tested, and the survivor count (dose: 200.0 mg/kg/injection, schedule: Q04DX003 (ip), vehicle: saline) was 6 of 6.
`Brc1ccc(CC[P+](c2ccccc2)(c2ccccc2)c2ccccc2)cc1` was tested, and the survivor count [12] was 0 of 6 and the survivor count [13] was 0 of 6.
For `COC(=O)C1Cc2cncn2C(=O)N1` (stereo unspecified), the T/C (dose: 128.0 mg/kg/injection, schedule: Q01DX009 (ip), vehicle: water) was 129 % of control.
`CC(C)CCN=Cc1ccccc1O.CC(C)CCN=Cc1ccccc1O.[Zn]` was tested, and the survivor count (dose: 200.0 mg/kg/injection, schedule: Q01DX009 (ip), vehicle: Klucel (hydroxypropylcellulose) (HPC)) was 2 of 6.
`COc1ccc2c(ccc3c(=O)c4c([nH]c32)CCC4)n1` was tested, and the survivor count (dose: 100.0 mg/kg/injection, schedule: Q04DX002 (ip), vehicle: saline with Tween-80) was 6 of 6, the survivor count [9] was 6 of 6 and the survivor count [10] was 6 of 6.
`CCc1ccc2c(-c3ccccc3)c3ccccc3c(-c3ccccc3)c2c1` was tested, and the survivor count [1] was 5 of 5 and the survivor count [2] was 5 of 5.
For `COC(=O)C1CC2C(=O)N(C)C(Br)C(Br)C12` (stereo unspecified), the survivor count (dose: 400.0 mg/kg/injection, schedule: Q04DX002 (ip), vehicle: saline) was 2 of 6.
`CCN(CC)S(=O)(=O)c1ccc(OC)c(N)c1` was tested, and the survivor count (dose: 400.0 mg/kg/injection, schedule: Q04DX003 (ip), vehicle: saline with Tween-80) was 4 of 6.
For `CCN=C(N)N/N=C(\C)c1ccc2c(c1)Cc1cc(/C(C)=N/NC(N)=NCC)ccc1-2`, the T/C (dose: 0.78 mg/kg/injection, schedule: Q04DX002 (ip), vehicle: saline with Tween-80) was 125 % of control, the T/C (dose: 1.56 mg/kg/injection, schedule: Q04DX002 (ip), vehicle: saline with Tween-80) was 131 and 140 % of control and the T/C (dose: 3.12 mg/kg/injection, schedule: Q04DX002 (ip), vehicle: saline with Tween-80) was 134 and 138 % of control. The T/C [15] was 133 % of control, the survivor count [15] was 6 of 6 and the survivor count (dose: 12.5 mg/kg/injection, schedule: Q04DX002 (ip), vehicle: saline with Tween-80) was 5 of 6. The survivor count (dose: 25.0 mg/kg/injection, schedule: Q04DX002 (ip), vehicle: saline with Tween-80) was 1 of 6 and the survivor count (dose: 50.0 mg/kg/injection, schedule: Q04DX002 (ip), vehicle: saline with Tween-80) was 0 of 6.
